Substitutions are numbered along the chain they refer to. These are yes or no findings as the source states them, for the method shown. Binding seen in cells or lysates may run through a third protein. Some entries that bind do so weakly or less than the wild type. For some of these results: Sequences can lack the tags named with a protein.
B1: Aco1-VC (enzyme, UniProt P19414 17-778)
chain: ATVSNLTRDSKVNQNLLEDHSFINYKQNVETLDIVRKRLNRPFTYAEKILYGHLDDPHGQDIQRGVSYLKLRPDRVACQDATAQMAILQFMSAGLPQVAKPVTVHCDHLIQAQVGGEKDLKRAIDLNKEVYDFLASATAKYNMGFWKPGSGIIHQIVLENYAFPGALIIGTDSHTPNAGGLGQLAIGVGGADAVDVMAGRPWELKAPKILGVKLTGKMNGWTSPKDIILKLAGITTVKGGTGKIVEYFGDGVDTFSATGMGTICNMGAEIGATTSVFPFNKSMIEYLEATGRGKIADFAKLYHKDLLSADKDAEYDEVVEIDLNTLEPYINGPFTPDLATPVSKMKEVAVANNWPLDVRVGLIGSCTNSSYEDMSRSASIVKDAAAHGLKSKTIFTVTPGSEQIRATIERDGQLETFKEFGGIVLANACGPCIGQWDRRDIKKGDKNTIVSSYNRNFTSRNDGNPQTHAFVASPELVTAFAIAGDLRFNPLTDKLKDKDGNEFMLKPPHGDGLPQRGYDAGENTYQAPPADRSTVEVKVSPTSDRLQLLKPFKPWDGKDAKDMPILIKAVGKTTTDHISMAGPWLKYRGHLENISNNYMIGAINAENKKANCVKNVYTGEYKGVPDTARDYRDQGIKWVVIGDENFGEGSSREHAALEPRFLGGFAIITKSFARIHETNLKKQGLLPLNFKNPADYDKINPDDRIDILGLAELAPGKPVTMRVHPKNGKPWDAVLTHTFNDEQIEWFKYGSALNKIKADEKK
B2: Aco1-GFP (enzyme, UniProt P19414 17-778)
chain: B1 chain

How the values were obtained:
VN-Bat1 (S. cerevisiae) = target: T1, VN-Bat1 (S. cerevisiae) (UniProt P38891); assay: split reporter; bimolecular fluorescence complementation of Venus halves in diploid yeast cells; SC (+leu), or SC-leu for 2 h (signal reduced); microscopy with MitoTracker Red
T1 sequence: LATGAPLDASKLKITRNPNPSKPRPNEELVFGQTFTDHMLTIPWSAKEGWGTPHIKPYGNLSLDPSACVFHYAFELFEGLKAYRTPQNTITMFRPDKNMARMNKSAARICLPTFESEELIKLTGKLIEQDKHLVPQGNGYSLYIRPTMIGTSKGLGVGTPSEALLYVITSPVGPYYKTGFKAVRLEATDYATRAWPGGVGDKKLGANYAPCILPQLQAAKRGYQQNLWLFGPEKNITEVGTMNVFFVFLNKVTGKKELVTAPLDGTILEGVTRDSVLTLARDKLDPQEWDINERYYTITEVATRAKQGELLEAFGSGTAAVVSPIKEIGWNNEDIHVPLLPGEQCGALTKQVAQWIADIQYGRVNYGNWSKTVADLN

[1] = target: T2, Bat1-FLAG (S. cerevisiae) (UniProt P38891); assay: condition: only 2 hr leucine starvation of the cells; co-IP; as a2, but cells harvested after 2 hr leucine starvation (-leu)
T2 sequence: T1 sequence

[2] = target: T2, Bat1-FLAG (S. cerevisiae); assay: co-IP; FLAG immunoprecipitation from lysates of yeast cells expressing a GFP-tagged protein and BAT1-FLAG, BAT1^K219R-FLAG or empty vector; immunoblot with anti-FLAG and anti-GFP; cells in SC-ura: no treatment, 200 nM rapamycin 30 min, or readdition of leucine or KIC for 1 hr after 2 hr leucine starvation
[3] = target: T3, Bat1^K219R-FLAG (S. cerevisiae) (UniProt P38891); assay: as above
T3 sequence: T1 sequence with K203R

Binder | binding (VN-Bat1 (S. cerevisiae)) | binding [1] | binding [2] | binding [3]
B1 | binds |  |  | 
B2 |  | no binding | binds | binds

Reference: PMC4684349
